US20210322508A1, “PEPTIDES AND COMPOSITIONS FOR TARGETED TREATMENT AND IMAGING” (SIGNABLOK, INC., priority 2018, published 2021)
At least one peptide structure holds a part that was inferred or is arguable (an end, a ring closure or a residue). Residues, ends and D or L forms follow the SMILES beside them.

The chains behind the UniProt entries cited, without tags or fusion partners. Residues count along the entry.
UniProt Q9JKE2, 21-230: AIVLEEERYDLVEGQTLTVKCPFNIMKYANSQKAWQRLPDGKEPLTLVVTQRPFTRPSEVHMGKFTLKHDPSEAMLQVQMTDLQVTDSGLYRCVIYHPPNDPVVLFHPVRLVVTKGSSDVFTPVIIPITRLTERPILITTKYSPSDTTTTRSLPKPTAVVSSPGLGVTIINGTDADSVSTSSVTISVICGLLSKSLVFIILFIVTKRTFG

Tests used:
[1] = test system: LPS-stimulated J774A.1 macrophages (TNF-alpha, IL-6, IL-1beta); test: In vitro cytokine release by LPS-stimulated macrophages; assay type: cell-based, mouse; settings: LPS 1 μg/ml, 24 h
Experimental: The BALB/c murine macrophage cell line J774A.1 (ATCC TIB-67) were obtained from the American Type Culture Collection (ATCC, Manassas, Va.). Macrophages were cultured in 48-well plates (Corning, Cambridge, Mass.) for 24 h at 37° C. in the presence of LPS (1 μg/ml, Escherichia coli 055:B5, Sigma) in combination with 10 ng/ml peptides either pre-incubated or not with HDL. Cell-free supernatants were harvested and stored at −20° C. for later cytokine quantification. TNF-alpha, IL-6, and IL-1beta were assayed using commercial ELISA kits (Pierce Biotechnology, Thermo Scientific, Rockford, Ill.) according to the recommendations of the manufacturer. Results were represented as the mean±S.D. of three independent experiments. Statistical significances in in vitro macrophage uptake assay were determined by two-tailed Student's t test.
The BALB/c murine macrophage cell line J774A.1 (ATCC TIB-67) were obtained from the American Type Culture Collection (ATCC, Manassas, Va.). […] Cell-free supernatants were harvested and stored at −20° C. for later cytokine quantification. TNF-alpha, IL-6, and IL-1beta were assayed using commercial ELISA kits (Pierce Biotechnology, Thermo Scientific, Rockford, Ill.) according to the recommendations of the manufacturer. […] Statistical significances in in vitro macrophage uptake assay were determined by two-tailed Student's t test.

TREM-1 = biological target: T1, TREM-1 (Mus musculus, UniProt Q9JKE2); test: colocalization of labeled peptide with TREM-1 in the cell membrane (images); assay type: cell-based; settings: GE31 delivered to macrophages by SLP, G-KV21 pre-incubated with HDL, J774 cells
T1 construct: BALB/c murine macrophage J774A.1 cells were grown at 37° C. in six-well tissue culture plates containing glass coverslips; endogenous in cells; host or cells: BALB/c murine macrophage cell line J774A.1 (ATCC)

[2] = test system: Pancreas Cancer: MiaPaca-2 Xenografts; test: MiaPaca-2 xenograft model; assay type: in vivo
[3] = test system: macrophage colony-stimulating factor, TNF-alpha, IL-1 and IL-6; test: CIA model: plasma cytokine detection; assay type: in vivo, mouse; settings: free or SLP-bound form
Capan-1 xenograft tumors = test: Capan-1 pancreatic cancer xenograft tumor growth in nude mice; assay type: in vivo, human; settings: 25 mg/kg i.p. daily 5qw, final day of treatment (29 days)
H292 and A549 xenografts = settings: free or SLP-bound form, i.p.
[4] = test system: human pancreatic cancer BxPC-3 xenograft; settings: study days 1 and 8
Experimental: (B) F4/80 staining. Results are expressed as the mean±SEM (n=4 mice per group). *, p<0.05; **, p<0.01, ****, p<0.0001 (versus vehicle). […] Scale bar=200 μm.
(§1) Treatment persisted for 31, 29 and 29 days for mice containing AsPC-1, BxPC-3 and Capan-1 tumor xenografts, respectively. Mean tumor volumes are calculated and plotted. All results are expressed as the mean±SEM (n=6 mice per group). On the final day of treatment, tumor volumes were compared between the drug-treated and control groups. **, p<0.01; ***, p<0.001; ****, p<0.0001 (versus vehicle).
As described herein, after tumors in AsPC-1-, BxPC-3- or Capan-1-bearing mice reached a volume of 150-200 mm^3, mice were randomized into groups and intraperitoneally (i.p.) administered once daily 5 times per week (5qw) with either vehicle (black diamonds), GA/E31-dSLP (light gray triangles) or GA/E31-sSLP (white triangles) at indicated doses. […] Mean tumor volumes are calculated and plotted. All results are expressed as the mean±SEM (n=6 mice per group). […]
Serum CSF1, VEGF and IL-6 levels were analyzed on study days 1 and 8 in BxPC-3-bearing mice treated daily 5 times per week (5qw) with either vehicle (black diamonds), GF9 (white circles) or GF9-LPC (black circles) at indicated doses. Results are expressed as the mean±SEM (n=5 mice per group). *, p<0.05; **, p<0.01; ***, p<0.001; ****, p<0.0001 (versus vehicle).

IL-1α, IL-6 and M-CSF = test: Serum cytokine detection in PC tumor-bearing mice; assay type: in vivo, mouse; settings: for serum IL-1α, IL-6 and M-CSF: study days 1 and 8, vs vehicle
[5] = test system: human pancreatic cancer Capan-1 xenograft; settings: CAPAN-1; study days 1 and 8
[6] = test system: human pancreatic cancer AsPC-1 xenograft
[7] = test system: human pancreatic cancer xenografts (cancer mice); test: monotherapy of cancer mice, statements without a single named xenograft; settings: 4 mg/kg GA/E31-SLP
Experimental: as §1

CC(C)C[C@H](NC(=O)[C@H](Cc1ccccc1)NC(=O)CN)C(=O)N[C@@H](CO)C(=O)N[C@@H](CCCCN)C(=O)N[C@@H](CO)C(=O)N[C@@H](CC(C)C)C(=O)N[C@H](C(=O)N[C@@H](Cc1ccccc1)C(=O)O)C(C)C [GF9] (H-GFLSKSLVF-OH)
production of cytokines by LPS-stimulated macrophages ([1]; 10 ng/ml after pre-incubation with HDL): but not
production of cytokines by LPS-stimulated macrophages ([1]; 50 ng/ml, free or SLP-bound form): inhibits production of cytokines by LPS-stimulated macrophages
colocalization with TREM-1 in the cell membrane (TREM-1): colocalization
effect of adding GF9 treatment to chemo [2]: does not affect
tumor growth, GF9 treatment alone ([2]; compared with GEM+ABX): inhibits tumor growth as effective as chemotherapy
plasma levels of M-CSF and pro-inflammatory cytokines (TNF-alpha, IL-1, IL-6) [3]: reduction in the plasma levels of macrophage colony-stimulating factor and pro-inflammatory cytokines
% T/C (Capan-1 xenograft tumors): 31 % T/C
tumor growth (H292 and A549 xenografts): inhibits tumor growth in two human NSCLC xenograft mouse models
serum CSF1 and IL-6 [4]: suppresses
serum VEGF [4]: but not
serum IL-1α, IL-6 and M-CSF (IL-1α, IL-6 and M-CSF; 2.5 mg/kg): did not affect the release of either cytokines or M-CSF
serum IL-1α, IL-6 and M-CSF (IL-1α, IL-6 and M-CSF; 25 mg/kg): inhibits the production of IL-1α (except of AsPC-1), IL-6, and M-CSF
serum cytokines and M-CSF (CSF-1) (IL-1α, IL-6 and M-CSF; dose not restated): reduction of serum levels of IL-1α, IL-6 and CSF-1
serum CSF1 and IL-6 [5]: suppresses
serum VEGF [5]: but not
tumor response when GF9 treatment is added to chemotherapy [6]: sensitizes the tumor to chemotherapy
serum levels of IL-11D, IL-6 and CSF-1 ([6]; 25 mg/kg GF9, 2.5 mg/kg GF9-sSLP): reduction
serum CSF1 and IL-6 ([6]; study days 1 and 8): suppresses
serum VEGF ([6]; study days 1 and 8): but not
antitumor effect after the end of treatment ([7]; 25 mg/kg GF9, 2.5 mg/kg GF9-SLP): persists even after treatment has been completed
antitumor efficacy compared with paclitaxel ([7]; GF9 treatment, 20 mg/kg PTX): comparable with that of 20 mg/kg paclitaxel (PTX)
